Test results reported in patent publication US20040247607A1, “Use of surfactants to stabilize oocysts” (priority 1999, published 2004).
Some entries share one result that the patent states for a list of compounds.

Tested on: sporulated oocysts
Test: Prevention of sporulated oocyst aggregation: surfactant added, samples shaken manually, visual examination

In the case of “t-octylphenoxypolyethoxyethanol [Triton X-100]”, the “concentration found effective at preventing the aggregation of sporulated oocysts” value (0.1 mg/ml, and above) is reported as no less than 0.1 mg/mL and the “concentration also found effective at preventing sporulated oocyst aggregation” value (as low as 0.05 mg/ml) is reported as no less than 0.05 mg/mL.
